According to patent US20130029846A1 (priority 2010, published 2013):
Some of these results come from one statement about several compounds together.

Legend:
[1] = system: Phytophthora infestans; assay type: cell-based; details: 31 ppm; relative growth vs compound-free control, absorption 405 nm, pea juice-based medium, zoospores
[2] = system: Botrytis cinerea; assay: Micro titer test, grey mold fungus Botrytis cinerea; assay type: cell-based; details: 31 ppm; relative growth vs compound-free control, absorption 405 nm, malt-based medium
[3] = system: Septoria tritici; assay: Micro titer test, leaf blotch fungus Septoria tritici; assay type: cell-based; details: 31 ppm; relative growth vs compound-free control, absorption 405 nm, malt-based medium
[4] = system: Pyricularia oryzae; assay type: cell-based; details: 31 ppm; relative growth vs compound-free control, absorption 405 nm, malt-based medium
[5] = system: Phytophthora infestans; assay type: in vivo; details: 600 ppm spray, preventative, tomato, 7 days; untreated plants 90% infected
[6] = system: Erysiphe graminis; assay: Greenhouse test, preventative efficacy against Erysiphe graminis on wheat (wheat powdery mildew); assay type: in vivo; details: 300 ppm spray, 7 days, untreated plants 90% infected
[7] = system: Puccinia recondita; assay: Greenhouse test, preventative efficacy against Puccinia recondita on wheat (wheat brown rust); assay type: in vivo; details: 300 ppm spray, 7 days, untreated plants 90% infected
[8] = system: Phakopsora pachyrhizi; assay: Greenhouse test, curative efficacy against Phakopsora pachyrhizi on soybeans (soybean rust); assay type: in vivo; details: 300 ppm spray, curative (one day after inoculation), 9 days, untreated plants 90% infected
[9] = system: Botrytis cinerea; assay: Greenhouse test, preventative efficacy against Botrytis cinerea on pepper (grey mold); assay type: in vivo; details: 600 ppm spray, 5 days, untreated plants 90% infected

Row | Compound | growth of the pathogen [1] | growth of the pathogen [2] | growth of the pathogen [3] | also measured
1 | CCN(C)C=Nc1ccc2c(c1)CC(C)N2CC(COc1cccc(F)c1)=NOC (stereo not shown) [I-76] | at most 10% | – | – | –
2 | CCN(C)C=Nc1ccc2c(c1)CCN2CC(COc1cccc(C(F)(F)F)c1)=NOC [I-78, N-Ethyl-N′-{1-[2-methoxyimino-3-(3-trifluoromethyl-phenoxy)-propyl]-2,3-dihydro-1H-indol-5-yl}-N-methyl-formamidine] | at most 10% | – | – | –
3 | CON=C(COc1cccc(C(F)(F)F)c1)Cn1c(C)cc2cc(N=C(C)N(C)C)ccc21 [I-12, N′-{1-[2-Methoxyimino-3-(3-trifluoromethyl-phenoxy)-propyl]-2-methyl-1H-indol-5-yl}-N,N-dimethyl-acetamidine] | at most 10% | – | – | –
4 | CCN(C)C=Nc1ccc2c(c1)cc(C)n2Cc1ccc(Cl)cc1Cl [I-22, N′-[1-(2,4-Dichloro-benzyl)-2-methyl-1H-indol-5-yl]-N-ethyl-N-methyl-formamidine] | – | at most 10% | at most 10% | –
5 | CCN(C)C=Nc1ccc2c(ccn2Cc2ccc(Cl)cc2Cl)c1 [I-28] | at most 10% | at most 10% | – | –
6 | CCN(C)C=Nc1ccc2c(c1)CC(C)N2Cc1cccc(C(F)(F)F)c1 (stereo not shown) [I-77] | at most 10% | at most 10% | at most 10% | growth of the pathogen [4]: at most 10%
7 | CCN(C)C=Nc1ccc2c(c1)c(C)c(C)n2Cc1c(F)cccc1Cl [I-25, N′-[1-(2-Chloro-6-fluoro-benzyl)-2,3-dimethyl-1H-indol-5-yl]-N-ethyl-N-methyl-formamidine] | at most 10% | at most 10% | at most 10% | –
8 | CCN(C)C=Nc1ccc2c(c1)c(C=NOC)cn2Cc1cccc(C(F)(F)F)c1 [I-21] | at most 10% | – | at most 10% | –
9 | CON=C(COc1ccc(Cl)c(Cl)c1)Cn1c(C)cc2cc(N=C(C)N(C)C)ccc21 [I-10] | at most 10% | at most 10% | – | infection (leaf surface area showing disease symptoms) [5]: ≤ 15%
10 | CON=C(COc1cccc(F)c1)CN1C(=O)C(=O)c2cc(N=CN(C)C)ccc21 [I-80] | at most 10% | – | – | –
11 | CCN(C)C=Nc1ccc2c(ccn2CC(COc2c(F)cccc2Cl)=NOC)c1 [I-15] | at most 10% | at most 10% | – | –
12 | CCN(C)C=Nc1cc2cnn(CC(COc3cccc(C(F)(F)F)c3)=NOC)c2cc1C [I-38, N-Ethyl-N′-{1-[2-methoxyimino-3-(3-trifluoromethyl-phenoxy)-propyl]-6-methyl-1H-indazol-5-yl}-N-methyl-formamidine] | – | – | – | infection (leaf surface area showing disease symptoms) [6]: ≤ 20%
13 | CCN(C)C=Nc1ccc2c(cnn2Cc2cccc(C(F)(F)F)c2)c1 [I-48] | – | – | – | infection (leaf surface area showing disease symptoms) [7]: ≤ 15%
14 | CCN(C)C=Nc1ccc2c(c1)CC(C)N2CC(COc1cccc(C(F)(F)F)c1)=NOC (stereo not shown) [I-75, N-Ethyl-N′-{1-[2-methoxyimino-3-(3-trifluoromethyl-phenoxy)-propyl]-2-methyl-2,3-dihydro-1H-indol-5-yl}-N-methyl-formamidine] | at most 10% | at most 10% | at most 10% | growth of the pathogen [4]: at most 10%
15 | CCN(C)C=Nc1ccc2c(ccn2Cc2c(F)cccc2Cl)c1 [I-29] | at most 10% | at most 10% | at most 10% | –
16 | CON=C(COc1ccc(Cl)c(Cl)c1)Cn1ccc2cc(N=CN(C)C)ccc21 [I-7] | at most 10% | – | – | –
17 | CCN(C)C=Nc1ccc2c(c1)cc(C)n2Cc1c(F)cccc1Cl [I-24] | at most 10% | – | – | infection (leaf surface area showing disease symptoms) [8]: ≤ 20%; infection (leaf surface area showing disease symptoms) [6]: ≤ 20%
18 | CON=C(COc1ccccc1F)Cn1c(C)cc2cc(N=C(C)N(C)C)ccc21 [I-11] | – | – | – | infection (leaf surface area showing disease symptoms) [5]: ≤ 15%; infection (leaf surface area showing disease symptoms) [7]: ≤ 15%
19 | CCN(C)C=Nc1ccc2c(ccn2Cc2ccc(Cl)c(Cl)c2)c1 [I-16, N′-[1-(3,4-Dichloro-benzyl)-1H-indol-5-yl]-N-ethyl-N-methyl-formamidine] | – | at most 10% | at most 10% | infection (leaf surface area showing disease symptoms) [9]: ≤ 20%; growth of the pathogen [4]: at most 10%
20 | CCN(C)C=Nc1ccc2c(c1)c(C)c(C)n2Cc1cccc(C(F)(F)F)c1 [I-26] | – | – | at most 10% | –
21 | CCN(C)C=Nc1ccc2c(c1)c(C=NOC)cn2CC(COc1c(F)cccc1Cl)=NOC [I-17] | at most 10% | – | – | infection (leaf surface area showing disease symptoms) [9]: ≤ 20%
22 | CON=C(COc1ccccc1F)Cn1cc(C(N)=O)c2cc(N=CN(C)C)ccc21 [I-5] | – | – | – | infection (leaf surface area showing disease symptoms) [5]: ≤ 15%
23 | CON=C(COc1cccc(C(F)(F)F)c1)CN1CCc2cc(N=CN(C)C)ccc21 [I-79] | at most 10% | – | – | –
